# According to PubChem BioAssay AID504467 (National Center for Advancing Translational Sciences (NCATS), 2011):
# Hit rate of the full screen: of about 330,000 compounds, about 7,700 (2.3%) were called active. The shares of active, inactive and inconclusive entries below differ from those in the screen. Calls follow the shape of the dose curve; as a rule, active = well fitted inhibition curve with a large enough effect; inconclusive = small, poorly fitted or top-dose-only effect, or effect the other way; inactive = flat fitted curve, though single readings scatter. A potency beside an inconclusive call is a rough fit, not a confirmed value.
# Experiment: qHTS screen for small molecules that inhibit ELG1-dependent DNA repair in human embryonic kidney (HEK293T) cells expressing luciferase-tagged ELG1; also: nearly all actives have a fitted effect of over 55% in size
# Details: HEK293T ELG1-luciferase reporter, luminescence, 16 h, DNA damage induced by 5-fluorouridine; series mostly up to 46.1 µM
# Summary of the method: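 DMSO vehicle served as the neutral condition. Each well held 2,000 cells given 5-fluorouridine plus compound; after 16 hr at 37 °C/5% CO2, ONE-Glo was added and luciferase measured 30 min later.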
# Potency is read from the fitted curve at half-maximal effect.
row,SMILES,Potency
1,N#C/C(=C/c1ccc(-c2ccc(S(N)(=O)=O)cc2)o1)c1nc2ccccc2s1,"inconclusive: 20.6 µM [activator, single point]"
2,O=C(CCS(=O)(=O)c1ccc(Cl)cc1)Nc1nnc(-c2ccco2)o1,inactive
3,O=C(CNCc1ccc(Cl)cc1)N1CCc2ccccc2C1,"inconclusive: 18.3 µM [activator, partial curve, poor fit]"
4,CN(C)/C=N/N(C)c1ncccc1[N+](=O)[O-],inactive
5,CN=C(NC#N)SCC(=O)c1ccc(Cl)cc1Cl,"inconclusive: 2.06 µM [inhibitor, partial curve, poor fit]"
6,COCC1CCN(C(=O)c2cc(COc3cncc(Cl)c3)on2)C1 (stereo not drawn),"inconclusive: 14.6 µM [inhibitor, single point]"
7,Cc1cc(NC(=O)CO/N=C/c2ccc3c(c2)OCO3)ccc1Br,"inconclusive: 29.1 µM [activator, single point]"
8,O=C(COc1ccccc1Cl)Nc1ccc2oc(=O)ccc2c1,"inconclusive: 4.11 µM [activator, partial curve, poor fit]"
9,N#CCC(=O)Nc1ccc(C(=O)OCC(=O)c2ccc3c(c2)OCCO3)cc1,"inconclusive: 20.6 µM [activator, single point]"
10,Cc1sc(NC(=O)CSc2nnnn2C2CCCC2)c(C#N)c1C,"inconclusive: 29.1 µM [inhibitor, single point]"
11,CCN(Cc1ccccc1)S(=O)(=O)CCNC(=O)c1ccccc1,inactive
12,CC(/C=N/NC(=O)CSc1n[nH]c(=O)[nH]c1=O)=C\c1ccccc1,inactive
13,Cc1nnsc1C(=O)NC1CCCc2c1cnn2-c1ccccc1F (stereo not drawn),"inconclusive: 1.03 µM [inhibitor, partial curve]"
14,CCOC(=O)N1CCN(c2c(NCCCN(CC)Cc3ccccc3)c(=O)c2=O)CC1,"inconclusive: 1.3 µM [inhibitor, single point]"
15,Nc1nc(COC(=O)CCC(=O)c2ccccc2)nc(Nc2ccccc2)n1,"inconclusive: 29.1 µM [activator, single point]"
16,CCOC(=O)c1c(N2CCCCC2)c2ccccc2[nH]c1=O,"inconclusive: 18.4 µM [inhibitor, partial curve, poor fit]"
17,CS(=O)(=O)N1CCN(c2ccc([N+](=O)[O-])c3cccnc23)CC1,"inconclusive: 23.1 µM [activator, partial curve]"
18,O=C(Nc1c(C(=O)Nc2ccc3c(c2)OCCO3)cnn1-c1ccccc1Cl)c1ccco1,"inconclusive: 0.461 µM [activator, partial curve, poor fit]"

# Sorted by length of the SMILES (descending): 3 of the compounds above
row,SMILES,Potency
1,N#C/C(=C/c1ccc(-c2ccc(S(N)(=O)=O)cc2)o1)c1nc2ccccc2s1,"inconclusive: 20.6 µM [activator, single point]"
14,CCOC(=O)N1CCN(c2c(NCCCN(CC)Cc3ccccc3)c(=O)c2=O)CC1,"inconclusive: 1.3 µM [inhibitor, single point]"
4,CN(C)/C=N/N(C)c1ncccc1[N+](=O)[O-],inactive
